# Out of some 330,000 compounds screened, about 1,000 (0.3%) were called active. Inconclusive results, whose numbers are uncertain, are shown with a selection of clear calls. Calls come from the whole dose curve; as a rule, active = well fitted inhibition curve with a large enough effect; inconclusive = small, poorly fitted or top-dose-only effect; inactive = no such curve, though single readings can be large or run the other way; tested in mouse RAW 264.7 cells. Potencies of inconclusive entries are doubtful fits and often do not repeat.
# Assay: qHTS for Inhibitors of Cell Surface uPA Generation; note: nearly all actives have a fitted effect of over 55% in size
# Details: cell surface uPA generation assay; series mostly up to 38.3 µM; activity change, negative = inhibition: at the top concentration
# Excerpt: The overall objective of this project is to perform a quantitative high throughput screen (qHTS) to identify novel compounds that inhibit the generation of cell surface urokinase activity. The urokinase plasminogen activator (uPA) is one of the two primary endogenous systems that mediate plasminogen activation into plasmin. Members of this system, including uPA and its receptor (uPAR), are overexpressed in several malignant tumors. This system plays a major role in adhesion, migration, invasion and metastasis of cancer cells. Small molecule inhibitors of the uPA system will serve as probes to understand the molecular mechanisms of the uPA cascade and better understanding the microenvironmental circumstances that facilitate the activation of plasminogen by uPA, and finally may provide novel candidate agents for anticancer drug therapy.
# […] […] Upon inhibition of the uPA activation cascade, the subsequent cell surface uPA activity-dependent translocation of LF into the cytoplasm is inhibited. ATP-Lite is used to measure intracellular ATP concentrations, which remain increased if LF entry into the cytoplasm is inhibited. This validation assay was performed using a small set of validation compounds.
# NIH Chemical Genomics Center [NCGC]
# NIH Molecular Libraries Probe Centers Network [MLPCN]
# Assay Submitter (PI): Thomas Bugge, National Institute of Dental and Craniofacial Research, NIH
# Cultured RAW 264.7 were dispensed into 1536-well clear bottom, white walled tissue culture plates at a density of 4000 cells/well and were incubated overnight (12-16 h) at 37 C in a 5% CO2 incubator. Serially diluted compounds in 23 nl DMSO were added to cells. […] Compound and reagent-treated plates were incubated for 24 h at 37 C in a 5% CO2 incubator. Perkin Elmer ATPlitetrade mark 1 step (3 ul) was then added to each well. Luminescence was detected using a Perkin Elmer ViewLuxtrade mark plate reader.
# 1.Dispensing RAW 264.7 cells into 1536-well, white walled tissue culture plates at a density of 4000 cells/well (4 uL).
# 2.Incubation at 37 C in a 5% CO2 incubator overnight.
# 3.Serially diluting compounds (1:5 serial dilution; 0.0024 uM to […] final concentration) in 23 nl DMSO.
# 5.Incubating the compound and reagent-treated plates for 24 hours at 37 C in a 5% CO2 incubator.
# 6.Adding ATP-Lite (3 ul).
# 7.Reading plates by ViewLux with an exposure length of 5 seconds.
# % is set by controls: 0 for no effect and ±100 for the full control effect; potency is the fitted concentration of half-maximal effect.
Structure (SMILES),Potency,"activity change, negative = inhibition"
CCOC(=O)C1=C(O)/C(=C/c2cc(OC)c(O)c(OC)c2)SC1=Nc1ccc(OC)cc1,"inconclusive: 10 µM [inhibitor, single point]",–
Cc1ccccc1NC(=O)Cn1nnc(C(=O)NCc2ccco2)c1N,"inconclusive: 11.2 µM [inhibitor, partial curve, poor fit]",–
CN1Cc2cnnn2-c2ccccc2C1C#N (stereo not drawn),"inconclusive: 10 µM [inhibitor, partial curve, poor fit]",–
Cc1cccc2c(N=NC(=O)c3ccc(NS(=O)(=O)c4cccs4)cc3)c(O)[nH]c12,"inconclusive: 3.55 µM [inhibitor, full curve]",–
Cc1ccc(-c2cc(-c3ccc(C)cc3)[n+](-c3ccccc3)c(-c3ccc(C)cc3)c2)cc1,"inconclusive: 1.58 µM [inhibitor, full curve, poor fit]",–
COC(=O)C1=C(c2ccc(F)cc2OCc2ccccc2)C[C@@H]2CC[C@H]1N2C(=O)NC1Cc2ccccc2C1,"inconclusive: 10 µM [inhibitor, single point]",–
COc1ccc(-c2cc([C@H]3[C@H]4C=CC[C@@H](C)[C@@H]4C(=O)N3Cc3ccccc3)ccc2F)cc1OC,"inconclusive: 12.6 µM [inhibitor, single point]",–
CCOC(=O)[C@]12Cc3cc(OC)ccc3[C@H]1N(Cc1ccccc1)C(=O)c1cc(F)c(F)cc12,"inconclusive: 28.2 µM [inhibitor, single point]",–
CCCCCCn1c(N)c(C(=O)NCCN2CCOCC2)c2nc3ccccc3nc21,–,inactive: -0.966%
O=C(NC1(Cc2ccccc2)CCN(Cc2ccc(-c3ccccc3)cc2)C1=O)c1ccccc1 (stereo not drawn),"inconclusive: 12.6 µM [inhibitor, single point]",–
C=C1C(=O)O[C@H]2[C@H]1[C@H](OC(=O)CC(=O)O[C@@H]1C[C@@H](C)[C@@H]3C=CC(=O)[C@@]3(C)[C@H]3OC(=O)C(=C)[C@H]13)C[C@@H](C)[C@H]1C=CC(=O)[C@]12C,"inconclusive: 31.6 µM [inhibitor, partial curve, poor fit]",–
Cc1cc(NC(=O)c2cccc(Br)c2)n[nH]1,"inconclusive: 11.2 µM [inhibitor, partial curve]",–
CS(=O)(=O)Nc1cccc(C2=NN(C(=O)c3ccco3)C(c3cccs3)C2)c1 (stereo not drawn),"inconclusive: 10 µM [inhibitor, single point]",–
Cn1ncnc2c(=O)n(C)c(=O)nc1-2,active: 1.12 µM,–
CC(=O)Nc1ccc(S(=O)(=O)N2CCN(c3cccc(C)c3C)CC2)cc1,"inconclusive: 10 µM [inhibitor, single point]",–
O=Cc1cc(OCc2ccccc2)ccc1[B-](F)(F)F,"inconclusive: 11.2 µM [inhibitor, partial curve, poor fit]",–
C[C@H]1CCC[C@H](O)CCCCCc2cc(O)cc(O)c2C(=O)O1,"inconclusive: 8.91 µM [inhibitor, single point]",–
CN1C(=O)C(c2ccccc2)C(=O)N(C)C1=O,–,inactive: 0.0125%
COC(=O)C1=C(c2ccccc2OCc2ccccc2)C[C@@H]2CC[C@H]1N2C(=O)NCc1ccc(Br)cc1,"inconclusive: 11.2 µM [inhibitor, single point]",–

# As entered above:
# Potency, Cc1cccc2c(N=NC(=O)c3ccc(NS(=O)(=O)c4cccs4)cc3)c(O)[nH]c12 is entered as inconclusive: 3.55 µM [inhibitor, full curve]
# Potency, CC(=O)Nc1ccc(S(=O)(=O)N2CCN(c3cccc(C)c3C)CC2)cc1 is entered as inconclusive: 10 µM [inhibitor, single point]

# (listing goes on)

Structure (SMILES),Potency,"activity change, negative = inhibition"
COC(=O)C1=C(c2ccccc2OCc2ccccc2)C[C@@H]2CC[C@H]1N2C(=O)NCc1ccc([N+](=O)[O-])cc1,"inconclusive: 7.08 µM [inhibitor, partial curve, poor fit]",–
CCOP(=O)(OCC)c1nc(-c2ccc(F)cc2)oc1NCc1ccccc1,"inconclusive: 7.94 µM [inhibitor, partial curve, poor fit]",–
O=[N+]([O-])c1c2ccccc2cc2ccccc12,"inconclusive: 7.08 µM [inhibitor, partial curve, poor fit]",–
CC1CN(c2ccc([N+](=O)[O-])c(N3CCCCC3)c2)CCN1 (stereo not drawn),–,inactive: -4.63%
Cc1cc(/C=C2\C(=O)NC(=O)N(Cc3ccco3)C2=O)c(C)n1-c1ccc(O)cc1,–,inactive: -1.76%
Cc1nc(Nc2cnc(/C=C/c3cc(C(=O)Nc4cccc(C(F)(F)F)c4)ccc3C)cn2)cc(N2CCNCC2)n1,"inconclusive: 12.6 µM [inhibitor, single point]",–
COc1ccc(N2C(=O)NC(=O)/C(=C/c3ccc([N+](=O)[O-])s3)C2=O)cc1,"inconclusive: 7.08 µM [inhibitor, single point]",–
COc1cc(/C=C/c2nc3ccccc3c(=O)n2-c2ccccc2O)ccc1O,–,inactive: -16.1%
COc1ccc(/C=C/C=C2C(=O)NC(=S)NC2=O)cc1,–,inactive: -1.05%
CCCCNc1c(-c2cccc(-c3ccc(OC)cc3)c2)nc2ccc(C)cn12,"inconclusive: 28.2 µM [inhibitor, single point]",–
CCN(CC)c1ccc(/C=N/N(c2ccccc2)c2ccccc2)c(O)c1,"inconclusive: 28.2 µM [inhibitor, single point]",–
COc1ccc(CN2CCCC(C(=O)c3cccc(Cl)c3)C2)cc1 (stereo not drawn),"inconclusive: 11.2 µM [inhibitor, single point]",–
COC(=O)C1=C(c2ccc(Cl)c(C(F)(F)F)c2)C[C@@H]2CC[C@H]1N2C(=O)NCC1CC1,–,inactive: -3.72%
Fc1ccc(C(OCCN2CCN(CCCc3ccccc3)CC2)c2ccc(F)cc2)cc1,"inconclusive: 12.6 µM [inhibitor, single point]",–
Cc1ccccc1-[n+]1c(-c2ccccc2)cc(-c2ccccc2)cc1-c1ccccc1,active: 7.94 µM,–
Cn1c(=O)oc2cc(S(=O)(=O)Nc3ccccc3O)ccc21,"inconclusive: 22.4 µM [inhibitor, single point]",–
COc1ccc2c(c1OC)CN1CCc3cc4c(cc3[C@H]1C2)OCO4,"inconclusive: 11.2 µM [inhibitor, single point]",–
COC(=O)C1=C(c2ccccc2OCc2ccccc2)C[C@@H]2CC[C@H]1N2C(=O)NC1CCN(Cc2ccccc2)CC1,"inconclusive: 10 µM [inhibitor, partial curve, poor fit]",–
O=C1/C(=C/c2ccc(O)c(O)c2)Oc2cc(O)ccc21,"inconclusive: 10 µM [inhibitor, partial curve, poor fit]",–

# Source: PubChem BioAssay AID540303 (National Center for Advancing Translational Sciences (NCATS), 2011)
